This is an account of results in patent US9700578B2, “Use of nitrite salts for the treatment of cardiovascular conditions” (The United States of America as represented by the …, priority 2003, dated 2017).

The data set deals with hypoxic-induced pulmonary hypertension.

Turning to `O=NO` [sodium nitrite], the “exhaled NO after nitrite nebulization” value (hypoxia, before 3±1) is on record as 15±4 ppb. For the same molecule, the “iron-nitrosyl-hemoglobin (chemiluminescence and EPR)” value (nitrite inhalation during hypoxia) is “markedly increased”.
